Reference: PMC8977034 (Journal of Nanobiotechnology, 2022)

Assay: peptide made by a vendor
Conditions: whole synthesis

Ac-LWALWK(Ac)K(Ac)K(Ac)RRHRRRHR
final HPLC purity: 96.12%
